{
  "sequences": {"note": "Protein sequences, listed by entry. Tags and fused reporters are not part of them. Residues count along the entry.", "UniProt P01024, residues 1002-1303": "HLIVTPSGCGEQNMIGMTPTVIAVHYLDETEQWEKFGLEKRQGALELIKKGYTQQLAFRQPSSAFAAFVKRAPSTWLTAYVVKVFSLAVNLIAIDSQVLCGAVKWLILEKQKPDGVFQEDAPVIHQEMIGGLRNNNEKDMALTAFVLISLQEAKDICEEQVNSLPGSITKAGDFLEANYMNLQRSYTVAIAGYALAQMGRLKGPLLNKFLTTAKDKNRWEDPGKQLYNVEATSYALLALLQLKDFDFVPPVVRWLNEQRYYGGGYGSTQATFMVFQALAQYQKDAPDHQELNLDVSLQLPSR", "UniProt Q64735, residues 41-405": "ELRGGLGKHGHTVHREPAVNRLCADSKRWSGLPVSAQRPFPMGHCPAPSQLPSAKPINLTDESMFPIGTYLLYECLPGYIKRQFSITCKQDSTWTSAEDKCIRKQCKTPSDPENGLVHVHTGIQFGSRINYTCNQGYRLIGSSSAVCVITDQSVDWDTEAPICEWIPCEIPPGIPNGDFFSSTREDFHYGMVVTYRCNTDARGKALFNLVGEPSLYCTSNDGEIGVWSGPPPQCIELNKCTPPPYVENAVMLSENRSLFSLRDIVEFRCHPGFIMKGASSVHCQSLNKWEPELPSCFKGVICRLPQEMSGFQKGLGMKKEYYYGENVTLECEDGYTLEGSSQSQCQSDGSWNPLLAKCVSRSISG"},
  "source": "paper PMC9244803",
  "about": "“Development and Optimization of Bifunctional Fusion Proteins to Locally Modulate Complement Activation in Diseased Tissue” (Frontiers in Immunology, 2022)",
  "key": {"[1]": {"target": "Human C3d protein (Complement Technologies) (human) (UniProt P01024)", "assay": "SPR; Biacore 3000, 25°C; human C3d amine-coupled at 20-30 RU on a CM5 chip; antibodies and fusion proteins 0-200 nM flowed over in HBS-EP+; Langmuir (1:1) model; both purified"}, "[2]": {"target": "Human C3d protein (Complement Technologies) (human) (UniProt P01024)", "assay": "ELISA; indirect ELISA; human C3d coated on 96-well plates overnight at 4°C; samples in PBS plus 0.1% BSA, 1 hour at ambient temperature; HRP-conjugated secondary antibody; EC50 by four-parameter fit; both purified"}},
  "note": "These are yes or no findings as the source states them, for the method shown.",
  "data": [
    {"substance": "murine Fc−Crry (from UniProt Q64735 41-405) (Fc fusion)", "values": [
      {"measurement": "binding", "setting": "[1]", "result": "no binding (tested: 0-200 nM)"},
      {"measurement": "binding", "setting": "[2]", "result": "no binding"}
    ]}
  ]
}
